# The other results are listed elsewhere or left out.
# The chains behind the UniProt entries cited, without tags or fusion partners. Where a name states a change or a piece, a line headed by the entry shows the natural chain unless it says otherwise.
# UniProt Q9Y2P8: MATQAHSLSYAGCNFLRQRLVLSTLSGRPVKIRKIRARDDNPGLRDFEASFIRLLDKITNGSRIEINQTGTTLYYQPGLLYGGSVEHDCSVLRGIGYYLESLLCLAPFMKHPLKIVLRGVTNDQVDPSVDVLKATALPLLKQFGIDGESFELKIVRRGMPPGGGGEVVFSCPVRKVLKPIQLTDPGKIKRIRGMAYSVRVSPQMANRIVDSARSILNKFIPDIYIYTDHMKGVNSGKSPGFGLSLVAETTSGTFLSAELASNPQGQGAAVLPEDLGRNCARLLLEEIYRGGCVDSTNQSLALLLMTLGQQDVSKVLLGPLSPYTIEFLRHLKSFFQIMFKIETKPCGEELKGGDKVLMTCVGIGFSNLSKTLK
# UniProt Q96P16: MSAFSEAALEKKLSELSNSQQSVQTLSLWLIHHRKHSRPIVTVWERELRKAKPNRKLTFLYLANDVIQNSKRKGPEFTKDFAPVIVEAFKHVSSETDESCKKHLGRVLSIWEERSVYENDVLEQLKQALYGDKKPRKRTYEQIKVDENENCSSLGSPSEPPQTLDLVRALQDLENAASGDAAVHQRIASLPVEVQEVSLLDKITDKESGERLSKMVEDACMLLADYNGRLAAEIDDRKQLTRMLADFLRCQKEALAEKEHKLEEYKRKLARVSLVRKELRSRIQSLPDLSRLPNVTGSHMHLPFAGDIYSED
# UniProt Q7L099: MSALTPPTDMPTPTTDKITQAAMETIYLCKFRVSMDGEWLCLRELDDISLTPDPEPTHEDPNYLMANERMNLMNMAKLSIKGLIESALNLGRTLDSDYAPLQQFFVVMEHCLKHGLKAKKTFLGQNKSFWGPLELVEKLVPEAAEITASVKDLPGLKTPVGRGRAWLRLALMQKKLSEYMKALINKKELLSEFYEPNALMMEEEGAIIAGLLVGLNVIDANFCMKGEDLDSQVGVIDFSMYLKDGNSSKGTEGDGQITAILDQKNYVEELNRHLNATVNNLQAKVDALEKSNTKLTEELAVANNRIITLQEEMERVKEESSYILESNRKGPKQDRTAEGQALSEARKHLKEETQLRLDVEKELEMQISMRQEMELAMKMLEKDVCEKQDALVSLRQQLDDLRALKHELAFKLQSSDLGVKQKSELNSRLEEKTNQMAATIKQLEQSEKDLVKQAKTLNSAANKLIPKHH
# UniProt P06702: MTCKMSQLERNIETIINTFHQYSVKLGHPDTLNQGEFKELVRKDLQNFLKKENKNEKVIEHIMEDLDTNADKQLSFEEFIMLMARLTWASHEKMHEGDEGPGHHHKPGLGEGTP
# UniProt Q9Y3A4: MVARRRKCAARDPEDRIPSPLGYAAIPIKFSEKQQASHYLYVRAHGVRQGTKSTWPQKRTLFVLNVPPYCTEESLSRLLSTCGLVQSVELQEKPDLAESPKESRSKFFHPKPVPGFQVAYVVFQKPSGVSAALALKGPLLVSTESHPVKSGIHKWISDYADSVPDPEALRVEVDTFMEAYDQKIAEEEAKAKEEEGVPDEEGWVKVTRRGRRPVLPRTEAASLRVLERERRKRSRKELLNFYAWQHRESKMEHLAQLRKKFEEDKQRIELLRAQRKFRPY
# UniProt Q96IZ7: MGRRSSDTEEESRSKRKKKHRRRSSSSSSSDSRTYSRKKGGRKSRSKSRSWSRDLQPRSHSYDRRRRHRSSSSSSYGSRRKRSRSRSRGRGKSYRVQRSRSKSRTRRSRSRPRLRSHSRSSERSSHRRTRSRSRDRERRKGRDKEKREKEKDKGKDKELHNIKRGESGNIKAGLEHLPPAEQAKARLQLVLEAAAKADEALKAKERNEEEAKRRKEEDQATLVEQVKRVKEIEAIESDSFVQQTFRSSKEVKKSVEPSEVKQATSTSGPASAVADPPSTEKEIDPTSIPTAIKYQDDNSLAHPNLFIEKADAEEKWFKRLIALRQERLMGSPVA
# UniProt Q7L523, whole entry: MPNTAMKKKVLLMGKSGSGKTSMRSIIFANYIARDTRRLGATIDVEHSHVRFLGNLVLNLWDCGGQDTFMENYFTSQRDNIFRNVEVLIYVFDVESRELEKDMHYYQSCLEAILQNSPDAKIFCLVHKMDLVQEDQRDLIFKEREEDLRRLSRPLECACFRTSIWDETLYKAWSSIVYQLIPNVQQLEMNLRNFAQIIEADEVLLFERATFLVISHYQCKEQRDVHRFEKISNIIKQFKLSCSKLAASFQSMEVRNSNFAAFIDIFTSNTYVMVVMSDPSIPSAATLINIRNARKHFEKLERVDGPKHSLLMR
# UniProt Q96PM5: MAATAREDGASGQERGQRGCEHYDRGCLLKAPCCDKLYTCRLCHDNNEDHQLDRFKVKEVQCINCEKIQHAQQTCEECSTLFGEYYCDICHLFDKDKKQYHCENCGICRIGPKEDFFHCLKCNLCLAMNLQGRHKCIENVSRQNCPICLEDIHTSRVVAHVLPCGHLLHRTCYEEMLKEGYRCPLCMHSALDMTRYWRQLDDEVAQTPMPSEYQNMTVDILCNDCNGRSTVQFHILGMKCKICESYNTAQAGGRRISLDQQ
# UniProt Q96T51: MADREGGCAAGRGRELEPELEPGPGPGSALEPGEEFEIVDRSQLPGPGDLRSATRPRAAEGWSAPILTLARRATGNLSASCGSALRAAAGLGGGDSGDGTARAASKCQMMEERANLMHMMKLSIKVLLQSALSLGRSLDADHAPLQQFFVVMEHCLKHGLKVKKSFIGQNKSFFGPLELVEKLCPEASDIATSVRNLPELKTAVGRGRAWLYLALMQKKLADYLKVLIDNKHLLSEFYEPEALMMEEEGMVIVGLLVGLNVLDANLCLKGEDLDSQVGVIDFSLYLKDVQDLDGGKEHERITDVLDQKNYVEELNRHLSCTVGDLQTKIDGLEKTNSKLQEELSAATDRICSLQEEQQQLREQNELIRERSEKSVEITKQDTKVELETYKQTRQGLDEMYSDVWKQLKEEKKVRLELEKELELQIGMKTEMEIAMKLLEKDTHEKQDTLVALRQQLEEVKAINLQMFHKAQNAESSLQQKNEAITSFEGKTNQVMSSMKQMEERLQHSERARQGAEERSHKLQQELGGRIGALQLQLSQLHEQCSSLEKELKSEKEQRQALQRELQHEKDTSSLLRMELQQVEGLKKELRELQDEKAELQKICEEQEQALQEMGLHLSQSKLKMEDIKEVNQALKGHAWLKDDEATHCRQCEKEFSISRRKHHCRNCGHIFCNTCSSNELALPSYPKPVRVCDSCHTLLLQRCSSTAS
# UniProt P48382: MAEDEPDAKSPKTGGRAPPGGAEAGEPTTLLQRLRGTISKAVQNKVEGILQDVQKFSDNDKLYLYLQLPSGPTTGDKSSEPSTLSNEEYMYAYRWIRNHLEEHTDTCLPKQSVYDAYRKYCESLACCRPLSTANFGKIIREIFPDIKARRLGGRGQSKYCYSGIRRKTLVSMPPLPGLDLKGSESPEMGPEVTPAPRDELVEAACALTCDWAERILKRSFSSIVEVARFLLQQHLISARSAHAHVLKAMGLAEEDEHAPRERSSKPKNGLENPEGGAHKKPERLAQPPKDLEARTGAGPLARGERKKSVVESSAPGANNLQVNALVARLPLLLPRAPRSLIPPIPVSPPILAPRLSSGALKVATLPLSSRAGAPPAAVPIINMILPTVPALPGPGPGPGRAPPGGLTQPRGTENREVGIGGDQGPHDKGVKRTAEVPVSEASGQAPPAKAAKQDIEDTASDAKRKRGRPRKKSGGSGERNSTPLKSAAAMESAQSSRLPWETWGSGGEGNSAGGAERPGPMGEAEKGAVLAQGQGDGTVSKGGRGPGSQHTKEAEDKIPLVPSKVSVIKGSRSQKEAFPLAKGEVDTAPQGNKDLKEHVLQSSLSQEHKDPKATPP
# UniProt Q5TA31: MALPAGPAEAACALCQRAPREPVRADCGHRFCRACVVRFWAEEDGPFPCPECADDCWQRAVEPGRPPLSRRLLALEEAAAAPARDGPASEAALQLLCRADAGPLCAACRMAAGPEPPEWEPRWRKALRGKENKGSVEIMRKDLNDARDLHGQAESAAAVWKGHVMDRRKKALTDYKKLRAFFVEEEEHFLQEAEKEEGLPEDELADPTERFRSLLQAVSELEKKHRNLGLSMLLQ
# UniProt P35251: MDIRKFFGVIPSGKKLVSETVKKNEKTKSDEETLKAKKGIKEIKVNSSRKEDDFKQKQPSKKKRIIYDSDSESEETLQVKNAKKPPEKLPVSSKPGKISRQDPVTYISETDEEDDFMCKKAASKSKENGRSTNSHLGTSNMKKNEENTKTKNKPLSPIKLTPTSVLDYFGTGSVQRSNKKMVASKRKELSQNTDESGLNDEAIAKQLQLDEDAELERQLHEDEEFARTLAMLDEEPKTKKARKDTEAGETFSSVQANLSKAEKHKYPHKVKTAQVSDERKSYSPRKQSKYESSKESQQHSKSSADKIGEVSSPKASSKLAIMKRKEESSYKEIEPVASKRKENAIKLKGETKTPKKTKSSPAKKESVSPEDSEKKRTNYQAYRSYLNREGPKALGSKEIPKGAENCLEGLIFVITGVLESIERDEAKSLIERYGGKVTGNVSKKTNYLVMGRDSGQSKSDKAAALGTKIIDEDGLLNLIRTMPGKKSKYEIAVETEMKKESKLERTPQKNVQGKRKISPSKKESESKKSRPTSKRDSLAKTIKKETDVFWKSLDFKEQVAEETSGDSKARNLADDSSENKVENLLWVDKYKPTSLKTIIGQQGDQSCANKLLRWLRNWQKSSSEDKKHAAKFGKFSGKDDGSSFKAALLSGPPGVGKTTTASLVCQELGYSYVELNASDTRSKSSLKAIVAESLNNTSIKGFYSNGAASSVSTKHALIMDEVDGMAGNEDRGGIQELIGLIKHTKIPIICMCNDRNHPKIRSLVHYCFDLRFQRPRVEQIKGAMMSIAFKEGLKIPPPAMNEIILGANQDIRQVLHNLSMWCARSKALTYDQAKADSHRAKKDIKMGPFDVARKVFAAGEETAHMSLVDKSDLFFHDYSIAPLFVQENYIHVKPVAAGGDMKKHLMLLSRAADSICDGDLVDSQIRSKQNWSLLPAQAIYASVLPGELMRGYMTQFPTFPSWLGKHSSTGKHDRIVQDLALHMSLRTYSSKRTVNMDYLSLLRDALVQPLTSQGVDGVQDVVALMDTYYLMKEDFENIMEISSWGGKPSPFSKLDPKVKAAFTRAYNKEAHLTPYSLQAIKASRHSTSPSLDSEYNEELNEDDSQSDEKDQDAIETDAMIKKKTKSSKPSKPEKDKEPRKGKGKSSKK
# UniProt Q96ER3: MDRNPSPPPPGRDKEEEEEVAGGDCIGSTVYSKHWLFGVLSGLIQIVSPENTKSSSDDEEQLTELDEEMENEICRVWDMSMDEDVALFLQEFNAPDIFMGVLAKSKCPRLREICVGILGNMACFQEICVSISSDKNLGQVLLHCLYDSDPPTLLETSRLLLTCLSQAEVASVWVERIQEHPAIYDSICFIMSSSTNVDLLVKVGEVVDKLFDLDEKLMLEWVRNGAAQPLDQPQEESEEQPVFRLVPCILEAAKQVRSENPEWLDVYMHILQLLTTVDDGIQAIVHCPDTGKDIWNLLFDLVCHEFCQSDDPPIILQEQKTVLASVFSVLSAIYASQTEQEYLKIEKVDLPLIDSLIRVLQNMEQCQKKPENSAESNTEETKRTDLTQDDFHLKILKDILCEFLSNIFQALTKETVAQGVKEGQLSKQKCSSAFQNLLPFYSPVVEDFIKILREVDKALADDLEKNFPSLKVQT
# UniProt Q9H4A4: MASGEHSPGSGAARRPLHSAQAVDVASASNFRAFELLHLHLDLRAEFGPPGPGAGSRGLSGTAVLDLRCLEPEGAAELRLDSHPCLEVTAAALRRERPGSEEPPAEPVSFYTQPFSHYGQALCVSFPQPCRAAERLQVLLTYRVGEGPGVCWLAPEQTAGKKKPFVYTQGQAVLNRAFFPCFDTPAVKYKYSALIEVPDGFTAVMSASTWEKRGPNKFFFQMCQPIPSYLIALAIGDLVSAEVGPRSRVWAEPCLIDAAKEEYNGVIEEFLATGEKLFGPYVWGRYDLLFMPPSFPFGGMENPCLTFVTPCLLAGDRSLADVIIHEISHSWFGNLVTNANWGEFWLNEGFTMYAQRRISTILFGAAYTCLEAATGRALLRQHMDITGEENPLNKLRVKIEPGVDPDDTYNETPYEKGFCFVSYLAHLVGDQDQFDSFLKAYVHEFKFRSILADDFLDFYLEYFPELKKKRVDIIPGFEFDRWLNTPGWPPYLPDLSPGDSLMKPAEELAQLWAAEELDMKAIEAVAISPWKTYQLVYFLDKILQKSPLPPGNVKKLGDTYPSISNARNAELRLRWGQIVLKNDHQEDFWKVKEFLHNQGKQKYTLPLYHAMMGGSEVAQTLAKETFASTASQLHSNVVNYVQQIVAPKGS
# Compound: COc1ccc(Cn2ccc3ccc(C(=O)NO)cc32)cc1
# Experiment: dose-dependent thermal stabilisation call (2D-TPP, DLPTP, 10% FDR) (binary (1 = stabilised)); higher = stabilised by the compound
# Conditions: system: HL-60 intact cells; concentration range 0.04-10 µM
row,Target,dose-dependent thermal stabilisation call
1,REL (UniProt Q04864),inactive: 0
2,RP5-1022P6 2,inactive: 0
3,RCL1 (UniProt Q9Y2P8),inactive: 0
4,RPRD1A (UniProt Q96P16),inactive: 0
5,RUFY3 (UniProt Q7L099),inactive: 0
6,S100A9 (UniProt P06702),inactive: 0
7,RPL10A (UniProt P62906),inactive: 0
8,RRP7A (UniProt Q9Y3A4),inactive: 0
9,RHEB (UniProt Q15382),inactive: 0
10,RSRC1 (UniProt Q96IZ7),inactive: 0
11,RPTOR (UniProt Q8N122),inactive: 0
12,RRBP1 (UniProt Q9P2E9),inactive: 0
13,RP3-402G11 5,inactive: 0
14,RRAGA (UniProt Q7L523),inactive: 0
15,RPL31 (UniProt P62899),inactive: 0
16,RSPRY1 (UniProt Q96DX4),inactive: 0
17,RCHY1 (UniProt Q96PM5),inactive: 0
18,RUFY1 (UniProt Q96T51),inactive: 0
19,RIN3 (UniProt Q8TB24),inactive: 0

# Rewritten as tab-separated lines: part of the list above
row	Target	dose-dependent thermal stabilisation call
18	RUFY1 (UniProt Q96T51)	inactive: 0
19	RIN3 (UniProt Q8TB24)	inactive: 0

# Additional results follow:

row,Target,dose-dependent thermal stabilisation call
1,RNF220 (UniProt Q5VTB9),inactive: 0
2,RFX5 (UniProt P48382),inactive: 0
3,RCSD1 (UniProt Q6JBY9),inactive: 0
4,RNF187 (UniProt Q5TA31),inactive: 0
5,RPL19 (UniProt P84098),inactive: 0
6,RFC1 (UniProt P35251),inactive: 0
7,RNF41 (UniProt Q9H4P4),inactive: 0
8,RPSA (UniProt P08865),inactive: 0
9,RPAP1 (UniProt Q9BWH6),inactive: 0
10,SAAL1 (UniProt Q96ER3),inactive: 0
11,RNPEP (UniProt Q9H4A4),inactive: 0
12,RPS14 (UniProt P62263),inactive: 0
13,RPL8 (UniProt P62917),inactive: 0
14,RPS9 (UniProt P46781),inactive: 0
15,RIC8B (UniProt Q9NVN3),inactive: 0
16,RG9MTD2 (UniProt Q8TBZ6),inactive: 0
17,RPAP3 (UniProt Q9H6T3),inactive: 0
18,SACS (UniProt Q9NZJ4),inactive: 0

# Reference: the supplement of paper PMC7666118
